These are yes or no findings as the source states them, for the method shown. In cells and extracts the contact can be indirect. Some results given as binding are weak or reduced against the parent protein; the word gives no strength. Blank lines part the entries; values can stand above or below the binder they belong to.
How the values were obtained:
[1] = target: T1, S100A14 (endogenous, CaLH3 cells) (human (endogenous in CaLH3)), Q9HCY8; experiment: co-IP; CaLH3 lysate (RIPA buffer), precipitated with anti-S100A14 antibody in the presence of 0, 0.5 or 2 mM CaCl2, 4°C; blotted with anti-S100A16; details: remark: other sources report otherwise
T1 chain: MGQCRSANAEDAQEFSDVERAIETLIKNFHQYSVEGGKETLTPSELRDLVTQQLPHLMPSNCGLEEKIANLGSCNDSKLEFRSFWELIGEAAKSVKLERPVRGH

[2] = target: T2, S100A14 (endogenous, CaLH3 cells) (human (endogenous in CaLH3)) (UniProt Q9HCY8); experiment: condition: only with 5 mM EDTA along with 2 mM CaCl2; co-IP; CaLH3 lysate (RIPA buffer), precipitated with anti-S100A14 antibody in the presence of 2 mM CaCl2 with 5 mM EDTA, 4°C; blotted with anti-S100A16
T2 sequence: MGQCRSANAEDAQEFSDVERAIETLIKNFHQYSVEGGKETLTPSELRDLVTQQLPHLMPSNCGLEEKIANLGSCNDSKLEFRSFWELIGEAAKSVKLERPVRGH

[3] = target: T3, S100A16 (endogenous, CaLH3 cells) (human (endogenous in CaLH3)), Q96FQ6; experiment: co-IP; reverse: CaLH3 lysate (RIPA buffer), precipitated with anti-S100A16 antibody, 0 mM CaCl2, 4°C; blotted with anti-S100A14; details: remark: other sources report otherwise
T3 chain: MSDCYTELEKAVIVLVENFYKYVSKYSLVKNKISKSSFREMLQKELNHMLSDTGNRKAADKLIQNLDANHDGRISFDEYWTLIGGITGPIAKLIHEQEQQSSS

- binding [1]: binds
B1: S100A16 (endogenous, CaLH3 cells), Q96FQ6 1-103 (protein)
chain: MSDCYTELEKAVIVLVENFYKYVSKYSLVKNKISKSSFREMLQKELNHMLSDTGNRKAADKLIQNLDANHDGRISFDEYWTLIGGITGPIAKLIHEQEQQSSS

- binding [2]: no binding
B2: S100A16 (endogenous, CaLH3 cells) (protein, UniProt Q96FQ6 1-103)
chain: MSDCYTELEKAVIVLVENFYKYVSKYSLVKNKISKSSFREMLQKELNHMLSDTGNRKAADKLIQNLDANHDGRISFDEYWTLIGGITGPIAKLIHEQEQQSSS

- binding [3]: binds
B3: S100A14 (endogenous, CaLH3 cells), Q9HCY8 1-104 (protein)
chain: MGQCRSANAEDAQEFSDVERAIETLIKNFHQYSVEGGKETLTPSELRDLVTQQLPHLMPSNCGLEEKIANLGSCNDSKLEFRSFWELIGEAAKSVKLERPVRGH

From PMC3785438
